Data reported in PMC2956695.
These are yes or no findings as the source states them, for the method shown. Binding seen in cells or lysates may run through a third protein. These calls come from enrichment with a bait or labelling near it, and not all partners need be listed. Tags and fused reporters may be left off the sequences shown.

By UniProt entry, the sequences of proteins in these tests, tags left out. Where a name states a change or a piece, a line headed by the entry shows the natural chain unless it says otherwise.
UniProt Q09188: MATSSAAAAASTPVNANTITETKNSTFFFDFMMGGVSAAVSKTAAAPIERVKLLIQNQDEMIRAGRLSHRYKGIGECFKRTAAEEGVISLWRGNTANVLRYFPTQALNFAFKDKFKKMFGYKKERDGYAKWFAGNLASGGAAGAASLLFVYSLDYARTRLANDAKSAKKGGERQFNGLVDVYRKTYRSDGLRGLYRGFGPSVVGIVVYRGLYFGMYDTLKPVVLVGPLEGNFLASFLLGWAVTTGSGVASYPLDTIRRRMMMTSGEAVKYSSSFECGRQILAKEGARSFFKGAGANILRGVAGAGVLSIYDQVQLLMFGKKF
UniProt Q9C0X6: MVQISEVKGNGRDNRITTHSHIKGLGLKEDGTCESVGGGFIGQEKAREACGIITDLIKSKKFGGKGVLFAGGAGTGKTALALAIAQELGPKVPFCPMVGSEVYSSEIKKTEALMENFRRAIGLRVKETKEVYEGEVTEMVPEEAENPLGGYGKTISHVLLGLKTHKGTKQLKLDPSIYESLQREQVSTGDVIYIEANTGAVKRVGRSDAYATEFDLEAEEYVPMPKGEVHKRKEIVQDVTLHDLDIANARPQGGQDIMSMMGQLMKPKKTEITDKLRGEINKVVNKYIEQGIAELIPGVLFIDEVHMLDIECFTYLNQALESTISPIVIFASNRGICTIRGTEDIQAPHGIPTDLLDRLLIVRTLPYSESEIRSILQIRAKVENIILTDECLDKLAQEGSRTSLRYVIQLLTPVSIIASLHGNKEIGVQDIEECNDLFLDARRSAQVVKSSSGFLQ
UniProt Q09794: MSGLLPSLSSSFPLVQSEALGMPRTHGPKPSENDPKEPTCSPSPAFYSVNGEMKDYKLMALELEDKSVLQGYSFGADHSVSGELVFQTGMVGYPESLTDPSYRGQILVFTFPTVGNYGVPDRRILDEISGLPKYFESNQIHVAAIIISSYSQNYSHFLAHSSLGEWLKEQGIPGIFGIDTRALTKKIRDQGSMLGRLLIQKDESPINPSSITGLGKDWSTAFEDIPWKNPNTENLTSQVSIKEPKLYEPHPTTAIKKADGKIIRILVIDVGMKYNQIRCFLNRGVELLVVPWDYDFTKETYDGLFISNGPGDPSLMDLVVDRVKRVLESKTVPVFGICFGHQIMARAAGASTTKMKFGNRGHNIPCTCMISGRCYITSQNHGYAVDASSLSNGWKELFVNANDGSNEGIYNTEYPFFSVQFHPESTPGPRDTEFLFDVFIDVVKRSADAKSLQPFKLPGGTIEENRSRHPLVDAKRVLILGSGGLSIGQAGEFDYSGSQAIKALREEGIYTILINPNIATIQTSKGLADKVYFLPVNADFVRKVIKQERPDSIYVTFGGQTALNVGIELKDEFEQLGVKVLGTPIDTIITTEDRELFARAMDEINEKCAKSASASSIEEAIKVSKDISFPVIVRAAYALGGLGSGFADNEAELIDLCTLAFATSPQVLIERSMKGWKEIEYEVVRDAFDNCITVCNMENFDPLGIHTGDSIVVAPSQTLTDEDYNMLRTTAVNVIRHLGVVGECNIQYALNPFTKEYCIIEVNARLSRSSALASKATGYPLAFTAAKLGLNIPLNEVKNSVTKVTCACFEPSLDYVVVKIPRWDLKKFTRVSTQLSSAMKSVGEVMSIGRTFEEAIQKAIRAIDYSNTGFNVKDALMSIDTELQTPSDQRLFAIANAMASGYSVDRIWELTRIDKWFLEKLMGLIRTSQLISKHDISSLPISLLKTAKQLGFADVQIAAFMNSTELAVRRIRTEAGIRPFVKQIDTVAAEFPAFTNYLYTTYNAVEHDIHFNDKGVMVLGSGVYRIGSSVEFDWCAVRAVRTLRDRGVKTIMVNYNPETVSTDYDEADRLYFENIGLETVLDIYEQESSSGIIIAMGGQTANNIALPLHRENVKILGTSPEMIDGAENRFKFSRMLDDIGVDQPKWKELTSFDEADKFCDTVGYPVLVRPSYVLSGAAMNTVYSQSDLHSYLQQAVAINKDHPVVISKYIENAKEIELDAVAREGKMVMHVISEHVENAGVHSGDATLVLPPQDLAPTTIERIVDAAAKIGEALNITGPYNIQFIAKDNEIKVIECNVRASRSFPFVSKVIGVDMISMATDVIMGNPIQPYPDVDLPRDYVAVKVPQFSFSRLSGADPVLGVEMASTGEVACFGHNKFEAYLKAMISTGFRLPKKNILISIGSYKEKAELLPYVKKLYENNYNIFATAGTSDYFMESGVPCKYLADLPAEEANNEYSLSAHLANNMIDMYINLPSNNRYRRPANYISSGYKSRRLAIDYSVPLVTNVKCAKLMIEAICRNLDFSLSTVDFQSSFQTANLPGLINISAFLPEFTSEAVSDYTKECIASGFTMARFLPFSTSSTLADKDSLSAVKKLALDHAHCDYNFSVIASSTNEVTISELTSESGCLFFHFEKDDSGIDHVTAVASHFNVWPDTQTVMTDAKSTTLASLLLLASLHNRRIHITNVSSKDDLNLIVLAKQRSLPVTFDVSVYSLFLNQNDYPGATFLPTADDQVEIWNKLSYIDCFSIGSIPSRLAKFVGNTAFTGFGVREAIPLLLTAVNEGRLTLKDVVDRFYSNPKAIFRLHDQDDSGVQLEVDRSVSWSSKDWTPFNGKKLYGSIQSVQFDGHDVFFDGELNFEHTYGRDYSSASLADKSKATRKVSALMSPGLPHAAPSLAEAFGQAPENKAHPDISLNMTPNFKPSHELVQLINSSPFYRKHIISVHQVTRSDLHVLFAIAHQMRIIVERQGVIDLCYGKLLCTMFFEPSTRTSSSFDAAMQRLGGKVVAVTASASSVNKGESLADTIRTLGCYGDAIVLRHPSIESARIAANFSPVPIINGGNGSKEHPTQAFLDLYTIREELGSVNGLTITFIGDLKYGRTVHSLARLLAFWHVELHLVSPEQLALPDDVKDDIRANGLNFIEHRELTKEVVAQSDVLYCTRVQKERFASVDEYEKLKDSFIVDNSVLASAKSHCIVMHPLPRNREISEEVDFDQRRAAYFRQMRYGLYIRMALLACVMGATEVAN
UniProt P87315: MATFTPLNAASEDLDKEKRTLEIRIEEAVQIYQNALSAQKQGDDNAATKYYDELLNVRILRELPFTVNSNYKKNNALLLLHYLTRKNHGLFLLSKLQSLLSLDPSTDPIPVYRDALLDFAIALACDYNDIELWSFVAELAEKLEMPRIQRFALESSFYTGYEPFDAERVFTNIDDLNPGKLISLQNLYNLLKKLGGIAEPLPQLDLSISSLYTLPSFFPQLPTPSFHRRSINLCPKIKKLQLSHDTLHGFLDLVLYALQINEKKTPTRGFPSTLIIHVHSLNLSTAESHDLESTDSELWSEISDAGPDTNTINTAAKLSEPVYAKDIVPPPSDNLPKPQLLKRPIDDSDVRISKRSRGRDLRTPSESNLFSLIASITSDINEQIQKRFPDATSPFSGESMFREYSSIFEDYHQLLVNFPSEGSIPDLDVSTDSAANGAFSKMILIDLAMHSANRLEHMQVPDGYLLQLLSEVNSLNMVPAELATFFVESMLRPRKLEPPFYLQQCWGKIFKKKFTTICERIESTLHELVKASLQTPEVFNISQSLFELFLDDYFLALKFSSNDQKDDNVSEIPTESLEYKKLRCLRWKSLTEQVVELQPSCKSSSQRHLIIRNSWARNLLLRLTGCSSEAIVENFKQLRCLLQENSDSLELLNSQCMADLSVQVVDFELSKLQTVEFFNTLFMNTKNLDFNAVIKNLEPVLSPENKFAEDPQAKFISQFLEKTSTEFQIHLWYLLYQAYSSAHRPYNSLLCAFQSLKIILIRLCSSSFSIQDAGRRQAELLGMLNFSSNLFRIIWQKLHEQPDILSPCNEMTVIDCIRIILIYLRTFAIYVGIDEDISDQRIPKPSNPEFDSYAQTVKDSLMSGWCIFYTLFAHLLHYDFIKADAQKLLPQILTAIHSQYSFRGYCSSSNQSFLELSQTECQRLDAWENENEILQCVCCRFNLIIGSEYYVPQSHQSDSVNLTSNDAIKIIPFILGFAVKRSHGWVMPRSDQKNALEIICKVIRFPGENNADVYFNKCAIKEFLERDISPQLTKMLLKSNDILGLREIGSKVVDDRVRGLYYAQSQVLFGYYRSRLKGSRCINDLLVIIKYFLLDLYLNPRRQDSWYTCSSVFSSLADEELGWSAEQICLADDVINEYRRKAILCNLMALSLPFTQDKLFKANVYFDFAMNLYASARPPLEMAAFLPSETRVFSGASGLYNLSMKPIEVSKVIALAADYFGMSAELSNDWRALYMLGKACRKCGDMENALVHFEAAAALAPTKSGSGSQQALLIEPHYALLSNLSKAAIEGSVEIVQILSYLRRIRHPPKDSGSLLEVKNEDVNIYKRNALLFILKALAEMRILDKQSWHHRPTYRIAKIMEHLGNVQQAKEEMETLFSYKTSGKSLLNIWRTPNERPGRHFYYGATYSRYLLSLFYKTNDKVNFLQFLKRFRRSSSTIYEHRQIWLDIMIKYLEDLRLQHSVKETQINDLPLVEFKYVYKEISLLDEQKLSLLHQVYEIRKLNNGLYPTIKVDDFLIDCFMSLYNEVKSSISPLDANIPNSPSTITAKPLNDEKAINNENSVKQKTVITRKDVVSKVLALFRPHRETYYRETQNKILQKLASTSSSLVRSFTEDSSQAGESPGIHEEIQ
UniProt P42656: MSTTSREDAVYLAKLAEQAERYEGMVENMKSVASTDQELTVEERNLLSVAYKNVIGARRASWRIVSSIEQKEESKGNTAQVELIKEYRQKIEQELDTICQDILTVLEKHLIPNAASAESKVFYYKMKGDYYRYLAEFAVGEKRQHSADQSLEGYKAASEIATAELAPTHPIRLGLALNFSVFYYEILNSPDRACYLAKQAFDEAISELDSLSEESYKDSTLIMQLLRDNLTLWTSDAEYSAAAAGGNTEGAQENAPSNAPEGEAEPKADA
UniProt Q9Y7X4: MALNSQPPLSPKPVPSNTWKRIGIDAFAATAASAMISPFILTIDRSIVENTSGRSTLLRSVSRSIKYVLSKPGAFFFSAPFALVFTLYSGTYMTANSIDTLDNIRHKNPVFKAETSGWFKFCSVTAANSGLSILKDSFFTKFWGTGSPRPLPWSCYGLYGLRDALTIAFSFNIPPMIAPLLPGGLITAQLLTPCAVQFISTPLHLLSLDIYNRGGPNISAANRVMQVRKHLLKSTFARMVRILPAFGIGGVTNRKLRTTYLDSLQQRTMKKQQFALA
UniProt Q10265: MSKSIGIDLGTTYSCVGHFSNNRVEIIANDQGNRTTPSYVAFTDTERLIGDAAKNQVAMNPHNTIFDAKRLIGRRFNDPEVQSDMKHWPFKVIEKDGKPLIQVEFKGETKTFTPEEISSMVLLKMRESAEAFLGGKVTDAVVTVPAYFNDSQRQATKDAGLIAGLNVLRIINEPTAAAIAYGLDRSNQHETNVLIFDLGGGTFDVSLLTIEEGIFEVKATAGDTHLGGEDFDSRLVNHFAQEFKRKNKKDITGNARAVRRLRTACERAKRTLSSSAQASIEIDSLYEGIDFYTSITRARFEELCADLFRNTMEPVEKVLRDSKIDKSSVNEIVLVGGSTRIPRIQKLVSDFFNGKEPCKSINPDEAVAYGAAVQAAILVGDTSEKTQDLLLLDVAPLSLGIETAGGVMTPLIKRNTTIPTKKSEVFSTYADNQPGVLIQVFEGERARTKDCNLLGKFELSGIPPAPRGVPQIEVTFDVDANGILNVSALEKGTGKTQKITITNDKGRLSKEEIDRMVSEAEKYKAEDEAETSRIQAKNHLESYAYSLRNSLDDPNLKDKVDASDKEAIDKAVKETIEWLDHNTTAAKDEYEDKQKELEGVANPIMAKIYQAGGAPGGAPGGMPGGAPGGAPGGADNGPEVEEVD
UniProt P31411: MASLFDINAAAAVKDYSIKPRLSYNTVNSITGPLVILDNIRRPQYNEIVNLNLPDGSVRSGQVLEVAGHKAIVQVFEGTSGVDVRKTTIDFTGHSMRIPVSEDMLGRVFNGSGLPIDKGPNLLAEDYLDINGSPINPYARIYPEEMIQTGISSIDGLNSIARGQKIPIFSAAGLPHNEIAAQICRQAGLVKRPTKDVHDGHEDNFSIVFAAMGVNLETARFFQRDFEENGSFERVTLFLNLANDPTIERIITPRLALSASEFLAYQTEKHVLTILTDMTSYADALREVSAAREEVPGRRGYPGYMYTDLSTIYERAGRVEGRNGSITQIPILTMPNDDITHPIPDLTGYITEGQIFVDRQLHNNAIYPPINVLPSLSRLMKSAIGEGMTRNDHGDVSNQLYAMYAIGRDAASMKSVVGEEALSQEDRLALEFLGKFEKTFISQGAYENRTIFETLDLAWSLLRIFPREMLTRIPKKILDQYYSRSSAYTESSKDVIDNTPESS

Molecular target: T1, Slm9-3XFLAG (S. pombe) (UniProt O74309)
T1 sequence: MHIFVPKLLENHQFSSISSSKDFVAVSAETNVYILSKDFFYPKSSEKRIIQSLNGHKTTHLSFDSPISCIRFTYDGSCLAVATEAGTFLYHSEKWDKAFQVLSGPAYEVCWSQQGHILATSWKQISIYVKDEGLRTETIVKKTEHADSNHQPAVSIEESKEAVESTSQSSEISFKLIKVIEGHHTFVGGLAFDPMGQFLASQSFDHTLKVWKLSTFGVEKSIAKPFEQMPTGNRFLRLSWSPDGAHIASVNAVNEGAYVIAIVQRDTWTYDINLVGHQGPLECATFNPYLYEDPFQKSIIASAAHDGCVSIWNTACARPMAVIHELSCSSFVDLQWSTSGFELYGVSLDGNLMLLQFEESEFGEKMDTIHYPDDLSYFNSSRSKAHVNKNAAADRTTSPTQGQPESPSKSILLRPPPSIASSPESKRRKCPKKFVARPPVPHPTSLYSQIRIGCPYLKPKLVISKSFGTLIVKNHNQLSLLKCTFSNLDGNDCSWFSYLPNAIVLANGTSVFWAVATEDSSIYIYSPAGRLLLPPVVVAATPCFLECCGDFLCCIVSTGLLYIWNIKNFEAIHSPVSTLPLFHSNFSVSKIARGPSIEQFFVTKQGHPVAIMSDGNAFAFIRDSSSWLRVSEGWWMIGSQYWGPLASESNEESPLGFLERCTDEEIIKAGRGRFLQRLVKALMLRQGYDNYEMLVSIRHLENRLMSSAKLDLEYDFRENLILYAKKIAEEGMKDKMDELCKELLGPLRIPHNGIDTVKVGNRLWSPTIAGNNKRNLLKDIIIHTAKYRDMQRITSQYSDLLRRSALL
Experiment: affinity purification with mass spectrometry; extracts from 5 g of cells expressing Slm9-FLAG, Dynabeads coupled to anti-FLAG M2 antibody for 15 mins, Benzonase treatment, on-bead tryptic digestion, LC-MS/MS; listed proteins found in at least two independent purifications and absent from four control purifications from untagged cells

Substance	binding
Anc1, adenine nucleotide carrier (from UniProt Q09188 1-322)	binds
Cct1, chaperonin-containing T-complex alpha subunit (from UniProt O94501 1-556)	binds
Cdc48, AAA family ATPase (from UniProt Q9P3A7 1-809)	binds
Nda3, tubulin beta (from UniProt P05219 1-448)	binds
Rpt2, 19S proteasome regulatory subunit (S. pombe)	binds
Rvb1, AAA family ATPase Rvb1 (from UniProt Q9C0X6 1-456)	binds
Ura1, carbamoyl-phosphate synthase (from UniProt Q09794 1-2244)	binds

Next, values leading:

binding	Substance
binds	Hip3, HIRA interacting protein 3 (from UniProt P87315 1-1630)
binds	Hsp90 chaperone (from UniProt P41887 1-704)
binds	Lys4, homocitrate synthase (S. pombe)
binds	Rad24, 14-3-3 protein (from UniProt P42656 1-270)
binds	Rpt5, 19S proteasome regulatory subunit (S. pombe)
binds	SPBC365.16, sequence orphan (from UniProt Q9Y7X4)
binds	Ssa1, Hsp70 protein (from UniProt Q10265 1-644)
binds	Tub1, tubulin alpha 2 (from UniProt P04689 1-449)
binds	Vma2, V-type ATPase V1 subunit B (from UniProt P31411 1-503)
